These are yes or no findings as the source states them, for the method shown. Some entries that bind do so weakly or less than the wild type.
Molecular target: CYCLIN-… KINASE A;1 (Arabidopsis thaliana) (UniProt P24100)
Experiment: co-purification on Strep-Tactin sepharose; CDKA;1-CYCD2;1 complexes expressed and purified by the system of ref. 36, incubated with 2 mM ATP for 1 h at 30 °C, bound to Strep-Tactin sepharose equilibrated with kinase buffer, eluted with 2.5 mM desthiobiotin

binding: binds
B1: CYCLIN D2;1 (protein, UniProt P42752 1-361)
chain: MAENLACGETSESWIIDNDDDDINYGGGFTNEIDYNHQLFAKDDNFGGNGSIPMMGSSSSSLSEDRIKEMLVREIEFCPGTDYVKRLLSGDLDLSVRNQALDWILKVCAHYHFGHLCICLSMNYLDRFLTSYELPKDKDWAAQLLAVSCLSLASKMEETDVPHIVDLQVEDPKFVFEAKTIKRMELLVVTTLNWRLQALTPFSFIDYFVDKISGHVSENLIYRSSRFILNTTKAIEFLDFRPSEIAAAAAVSVSISGETECIDEEKALSSLIYVKQERVKRCLNLMRSLTGEENVRGTSLSQEQARVAVRAVPASPVGVLEATCLSYRSEERTVESCTNSSQSSPDNNNNNNNSNKRRRKQ
